Data taken from ChEMBL document CHEMBL3988442, “University of Dundee, Small-Polar-MMV Screening Library” (2021).

The chains behind the UniProt entries cited, without tags or fusion partners. Residues count along the entry.
UniProt Q4DA54, 1-478: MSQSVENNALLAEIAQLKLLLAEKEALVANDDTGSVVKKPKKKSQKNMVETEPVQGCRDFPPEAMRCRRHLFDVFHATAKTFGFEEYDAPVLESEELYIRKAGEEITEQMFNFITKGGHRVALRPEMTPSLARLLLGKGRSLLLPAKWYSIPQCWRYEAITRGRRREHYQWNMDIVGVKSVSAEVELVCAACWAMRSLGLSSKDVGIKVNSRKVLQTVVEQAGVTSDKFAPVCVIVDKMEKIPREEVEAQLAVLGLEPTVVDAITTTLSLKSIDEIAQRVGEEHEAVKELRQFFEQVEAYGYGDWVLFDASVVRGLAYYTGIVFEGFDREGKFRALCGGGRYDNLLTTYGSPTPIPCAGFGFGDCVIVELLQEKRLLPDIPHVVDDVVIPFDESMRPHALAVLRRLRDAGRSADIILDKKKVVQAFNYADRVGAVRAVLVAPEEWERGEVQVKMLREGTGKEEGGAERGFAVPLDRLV
UniProt A4I591, 1-473: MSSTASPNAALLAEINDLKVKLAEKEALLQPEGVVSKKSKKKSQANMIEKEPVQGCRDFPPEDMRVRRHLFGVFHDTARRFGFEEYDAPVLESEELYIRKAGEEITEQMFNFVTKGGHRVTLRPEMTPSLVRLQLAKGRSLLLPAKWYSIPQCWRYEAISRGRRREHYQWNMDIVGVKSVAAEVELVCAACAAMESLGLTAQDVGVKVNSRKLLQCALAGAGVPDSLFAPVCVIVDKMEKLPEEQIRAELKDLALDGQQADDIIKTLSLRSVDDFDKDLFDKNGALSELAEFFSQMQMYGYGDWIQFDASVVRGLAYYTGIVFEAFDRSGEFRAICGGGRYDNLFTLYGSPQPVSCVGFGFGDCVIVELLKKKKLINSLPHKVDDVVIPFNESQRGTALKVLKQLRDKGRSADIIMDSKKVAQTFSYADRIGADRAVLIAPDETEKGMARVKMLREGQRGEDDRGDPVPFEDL

TcHisRS: 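Enzyme assay of histidyl-tRNA synthetase; the read-out is not stated. Target: Histidine-tRNA ligase, Trypanosoma cruzi CL Brener (UniProt Q4DA54). Compounds at 30 µM. Higher reads as stronger inhibition (inferred: compounds with an IC50 in retests scored well above the rest). Size under these conditions: about 69,000 compounds, about 31 of them at 50% or above in at least one test.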
LiHisRS: 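Histidine-tRNA ligase, Leishmania infantum (UniProt A4I591). Enzyme assay of histidyl-tRNA synthetase; the read-out is not stated. Tested at 30 µM. Higher reads as stronger inhibition (inferred: compounds with an IC50 in retests scored well above the rest). The assay is labelled LdHisRS but filed under L. infantum. About 69,000 compounds were tested under these conditions; 0.6% (about 410) showed 50% or more at least once.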

Results are given as percent effect. How 0% and 100% were set is not recorded. Most values in the screen are low, and negative values occur. The compounds are a random part of those screened.

SMILES,TcHisRS,LiHisRS
Cc1nc(-c2ccc(C(=O)O)cc2)cc(C2CCCN(C(C)C)C2)n1 (stereo unspecified),2.26,5.714
O=C1c2cnc(N3CCCC3)nc2CN1C1CCS(=O)(=O)C1 (stereo unspecified),1.754,17.7
CNC(=O)C1(CCCc2cnccn2)CCN1CCc1ccccc1 (stereo unspecified),13.64,17.39
CCCc1noc(C2CC(=O)N(CCN(C)C)C2)n1 (stereo unspecified),2.424,18.18
CCn1ncc(CN2CCc3c(nc(-c4cccnc4)[nH]c3=O)C2)c1C,2.732,13.87
Cc1ccc(C(=O)NCC(C)Cn2ccnc2C)c(=O)[nH]1 (stereo unspecified),1.064,10.45
CCCS(=O)(=O)N1CCC2(CN(c3cnn(C)c3)C(=O)CN2C)C1 (stereo unspecified),4.813,1.923
Fc1ccc(OCc2nnc([C@H]3CCN(Cc4ccccn4)C3)o2)cc1,11.88,13.89
CCn1nc(C)c2nc(C(C)C)nc(NC)c21,4.348,0
COCC(NC1CCN(CC(C)C)CC1)c1ccnn1C (stereo unspecified),1.026,8.163
Cn1nc(CN2CCCCC2)c2c1CN(C(=O)c1cccc(Cl)c1)C2,-4,0.885
COc1ccc(-c2c(C)nn3c(=N)c(C#N)n[nH]c23)cc1OC,5.941,4.348
CC(CC(=O)c1ccco1)NC(=O)c1ccccn1 (stereo unspecified),-0.8929,8.85
COc1cc(CN)c(OC)c2c1OCO2,6.818,5
O=C(CC1CN(Cc2ccccc2)CCO1)NCCN1CCOCC1 (stereo unspecified),-0.4484,-1.176
CCOc1ccc(C#N)cc1NCC(=O)NC1(C#N)CCCC1,1.744,10.71
O=C(NCCO)Nc1cccc(Cl)c1SC(F)F,8.13,2.885
CCN(CC)C(=O)C1CCC2(CCNCC2)O1 (stereo unspecified),3.226,7.071
COCCn1c(=O)n(Cc2ccc(Cl)s2)c2cc(C(=O)O)ccc21,1.176,3.968
Cn1cc(C2(C)CN(Cc3ccc(O)c(Cl)c3)CCO2)cn1 (stereo unspecified),-0.4926,-1.299
Cc1ccc(C)c(Oc2ccc(CNC(=O)C3CCC(=O)N3)cn2)c1 (stereo unspecified),6.329,2.083
CN1Cc2nc[nH]c2C[C@H]1C(=O)NC1CCCCC1,1.98,19.44
COc1ccc(C)c2c1N(C(=O)c1cnc3onc(C)c3c1)CCC2,2.439,16.95
O=C1COC2(CCN(Cc3ccoc3)CC2)CN1c1ccsc1,1.639,12.41
CC(C)c1cn(CC(=O)NC2CC(=O)N(CCc3ccccc3)C2)nn1 (stereo unspecified),6.513,11.43
O=C(NCCc1nnc2n1CCC2)NCC1(c2cccc(F)c2)CC1,-215.2,5.714
CS(=O)(=O)N1C[C@@H](O)[C@H](N2CCN(c3ccccc3)CC2)C1,0.7752,0
O=C(CCN1CCCCO1)NCc1cn2c(n1)SCC2,2.4,-6.195
COc1c(CNC2(c3noc(C)n3)CCC2)c(C(C)C)nn1C,-1.657,12.68
CC(=O)N1CCN(c2nc3c(cnn3C(C)(C)C)c(=O)[nH]2)CC1,3.784,16.44
CCC(C)(C)NC(=O)c1nnn(-c2cccc3c2CCN(C)C3)c1C,13.33,18.75
Cc1nc(C)n(CC2CCCCN2CCOc2ccc(C#N)cc2)n1 (stereo unspecified),11.43,16.95
Cc1nnc(N2CCc3cnc(C(C)C)nc3C2)c(C#N)c1C,5.82,46.67
CSC1(CNc2ncc(Br)cn2)CCOCC1,5.464,8.219
CCOC(=O)C1CN(C(=O)COC)Cc2ncn(CC)c21 (stereo unspecified),11.49,18
Cc1cc(C)c2ncn(CCC(C)O)c(=O)c2c1 (stereo unspecified),6.579,19.17
COc1ccccc1C(=O)N(Cc1nc(C)cs1)CC1CCCO1 (stereo unspecified),3.797,6.25
COCCCN1CCC(N(Cc2noc(C)n2)C(C)=O)C1 (stereo unspecified),5.202,8.036
O=C1CC(c2ccc(C(=O)O)cc2)c2c(sc3c2CCCC3)N1 (stereo unspecified),3.093,5.747
CCCc1cc(NC2CCc3ncnn3C2)n2ncnc2n1 (stereo unspecified),1.653,19.23
Cc1cc(=O)[nH]c(-n2nc(-c3cccs3)cc2N)n1,-1.587,20
Cn1cccc1C(=O)NC1(C(=O)NCC2CC2)CCCC1,10.1,21.95
COc1ccc(CC(=O)NCCCc2nnc3nc(C)cc(C)n23)cc1,8,2.174
CCC(C(=O)N1CCCN(CCN(C)C)CC1)N1CCCC1=O (stereo unspecified),0,0.8772
CN(CCc1noc(C2CC2)n1)C(=O)C1(N2CCCC2)CCCC1,1.587,14.67
CC(C)N1CCOCC2(CN(Cc3ccccn3)CCO2)C1 (stereo unspecified),0,14.56
COc1ncccc1NC(=O)N(Cc1ccco1)C1CC1,0.5714,13.46
COc1ccccc1C(NC(=O)CN(C)C(C)C)c1noc(C)n1 (stereo unspecified),11.11,9.804
CCS(=O)(=O)N[C@@H]1CN(Cc2cc(C)on2)C[C@@H]2CCCO[C@@H]21,3.39,24.53
Cc1nn(CC(=O)NCC2(C(N)=O)CCOCC2)c(C)c1Cl,9.045,8.235
Cc1ccc(N2CCCC(N(C)c3nn4cc(C)nc4s3)C2)nn1 (stereo unspecified),4.464,15.93
NCC1(c2cccc(Br)c2)CCOCC1,-1.604,11.54
CO[C@H]1CCN(Cc2ccoc2)C[C@@H]1Cc1ccccc1,1.676,5.769
Fc1cccc2ncnc(NCCCc3ccncc3)c12,1.932,14.17
Cc1ncoc1C(=O)N1CCCC(c2ccc3c(N)nn(C)c3n2)C1 (stereo unspecified),5.65,12.59
Cc1noc2nc(C3CCN(Cc4ccncc4)CC3)cc(C(F)F)c12,2.703,2.778
CC1CCCN(S(=O)(=O)NCCN/C(O)=C2/N=CC=CC2=O)C1 (stereo unspecified),-0.5348,6.806
CC(=O)N1CCC(c2nccnc2-c2ccc(F)cc2)CC1,11.7,15.62
Cc1ncn(CCNC(=O)Nc2ccc(OC(F)(F)F)cc2)c(=O)c1C,5.82,9.333
Cc1nc(CN(CCS(C)(=O)=O)C(C)(C)C)no1,-1.293,16.46

The first 5 entries again:

{"smiles": "Cc1nc(-c2ccc(C(=O)O)cc2)cc(C2CCCN(C(C)C)C2)n1", "stereo": "stereo unspecified", "TcHisRS": 2.26, "LiHisRS": 5.714}
{"smiles": "O=C1c2cnc(N3CCCC3)nc2CN1C1CCS(=O)(=O)C1", "stereo": "stereo unspecified", "TcHisRS": 1.754, "LiHisRS": 17.7}
{"smiles": "CNC(=O)C1(CCCc2cnccn2)CCN1CCc1ccccc1", "stereo": "stereo unspecified", "TcHisRS": 13.64, "LiHisRS": 17.39}
{"smiles": "CCCc1noc(C2CC(=O)N(CCN(C)C)C2)n1", "stereo": "stereo unspecified", "TcHisRS": 2.424, "LiHisRS": 18.18}
{"smiles": "CCn1ncc(CN2CCc3c(nc(-c4cccnc4)[nH]c3=O)C2)c1C", "TcHisRS": 2.732, "LiHisRS": 13.87}